From article PMC6083452
These are yes or no findings as the source states them, for the method shown. Binding seen in cells or lysates may run through a third protein. A result given as binding can be weak or reduced; the word gives no strength.

The chains behind the UniProt entries cited, without tags or fusion partners. Where a name states a change or a piece, a line headed by the entry shows the natural chain unless it says otherwise.
UniProt Q21731: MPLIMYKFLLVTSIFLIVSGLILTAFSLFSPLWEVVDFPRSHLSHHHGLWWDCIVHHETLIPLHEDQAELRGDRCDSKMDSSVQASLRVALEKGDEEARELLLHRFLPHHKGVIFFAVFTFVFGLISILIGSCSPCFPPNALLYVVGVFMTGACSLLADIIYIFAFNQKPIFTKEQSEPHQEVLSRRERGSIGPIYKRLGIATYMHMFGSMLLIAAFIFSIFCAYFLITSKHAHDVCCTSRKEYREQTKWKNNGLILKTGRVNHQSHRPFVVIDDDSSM

Columns and labels:
[1] = target: T1, UNC-29 (C. elegans (endogenous in C. elegans)) (UniProt P48181); experiment: co-IP; 3 mg protein extract of C. elegans expressing HPO-30::mCherry in muscles, incubated with UNC-29 and UNC-38 antibodies at 4°C for 4 h, then protein A/G beads for 3 h; 5 washes with ice-cold lysis buffer; blot with anti-mCherry; control: beads only without antibody
T1 sequence: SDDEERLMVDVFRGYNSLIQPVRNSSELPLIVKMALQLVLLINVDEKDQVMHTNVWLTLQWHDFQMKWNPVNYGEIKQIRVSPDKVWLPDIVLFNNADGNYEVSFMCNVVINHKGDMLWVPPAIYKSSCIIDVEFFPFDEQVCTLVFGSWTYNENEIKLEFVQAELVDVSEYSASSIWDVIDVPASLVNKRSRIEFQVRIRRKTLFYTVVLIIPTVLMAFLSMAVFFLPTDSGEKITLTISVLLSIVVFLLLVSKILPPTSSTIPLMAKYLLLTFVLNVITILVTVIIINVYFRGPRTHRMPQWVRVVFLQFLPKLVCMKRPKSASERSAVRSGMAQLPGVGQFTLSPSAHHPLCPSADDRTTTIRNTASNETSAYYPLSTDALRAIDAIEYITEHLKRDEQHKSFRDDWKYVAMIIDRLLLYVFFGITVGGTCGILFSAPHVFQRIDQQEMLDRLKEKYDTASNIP

[2] = target: T2, UNC-38 (C. elegans (endogenous in C. elegans)) (UniProt Q23022); experiment: as above
T2 sequence: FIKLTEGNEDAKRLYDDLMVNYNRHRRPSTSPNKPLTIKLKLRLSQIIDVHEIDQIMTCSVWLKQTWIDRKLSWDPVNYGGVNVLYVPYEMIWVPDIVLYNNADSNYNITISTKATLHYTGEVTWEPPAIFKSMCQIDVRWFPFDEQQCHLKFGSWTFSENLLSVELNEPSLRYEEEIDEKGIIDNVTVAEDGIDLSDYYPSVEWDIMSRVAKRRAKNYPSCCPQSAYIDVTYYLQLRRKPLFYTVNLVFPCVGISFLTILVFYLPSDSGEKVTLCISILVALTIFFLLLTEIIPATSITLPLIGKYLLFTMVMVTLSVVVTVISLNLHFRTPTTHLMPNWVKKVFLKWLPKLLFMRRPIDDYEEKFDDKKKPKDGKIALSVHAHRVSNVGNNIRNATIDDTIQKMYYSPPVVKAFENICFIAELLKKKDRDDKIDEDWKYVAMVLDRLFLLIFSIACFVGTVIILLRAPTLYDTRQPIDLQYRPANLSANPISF

## HPO-30::mCherry (from UniProt Q21731)
[1]
  binding: binds
[2]
  binding: binds
